Test results as given in publication PMC12752627, “Discovery of a Potent and Selective TEAD Degrader with Durable Degradation Activity” (Advanced Science, 2025).
Further values from the same series stand in other lists.

System: 867 cancer cell lines
Assay: PRISM assay (barcoded cell line screening, 5 days);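 further: top test concentration 10 mM in eight-point dilution series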
Assay type: cell-based
Design: scale not given here
Description: The principle of the PRISM assay has been described elsewhere and was conducted as previously outlined by the PRISM team at the Broad Institute.^[ [14], [31] ^] In PRISM (MTS027) experiments, KG‐FP‐003 was tested across 867 different cancer cell lines. Cells were treated with eight concentration gradients, ranging from 4.6 nM to […], in triplicate dilutions over a period of five days. Each plate was treated with 20 µM bortezomib as a positive control and DMSO as a negative control. Three replicate experiments were performed for each compound. The resulting data were analyzed using GraphPad PRISM 9.5.

CNC(=O)c1cc2c(c(F)c1-c1c(Cl)c(F)cc3c1C[C@@](CN[C@H]1CC[C@H](C(=O)N4CCC(CC5CCN(C(=O)COc6ccc(N7CCC(=O)NC7=O)c(C)c6)CC5)CC4)CC1)(c1ccccc1)O3)[C@@H](O)[C@@H](C)C2 [KG-FP-003]
KG-FP-003-AUC (8MGBA_CENTRAL_NERVOUS_SYSTEM ACH-000137 PR500): 0.88
KG-FP-003-AUC (22RV1_PROSTATE ACH-000956 PR500): 0.99
KG-FP-003-AUC (93T449_SOFT_TISSUE ACH-001794 PR300): 1.00
KG-FP-003-AUC (94T778_SOFT_TISSUE ACH-001795 PR300): 0.55
KG-FP-003-AUC (95T1000_SOFT_TISSUE ACH-001796 PR300): 0.46
KG-FP-003-AUC (143B_BONE ACH-001001 PR300): 0.99
KG-FP-003-AUC (253JBV_URINARY_TRACT ACH-000026 PR500): 0.99
KG-FP-003-AUC (253J_URINARY_TRACT ACH-000011 PR500): 0.88
KG-FP-003-AUC (921_UVEA ACH-001441 PR300): 0.87
KG-FP-003-AUC (1618K_TESTIS ACH-001437 PR300): 0.89
KG-FP-003-AUC (1777NRPMET_TESTIS ACH-001438 PR300): 0.95
KG-FP-003-AUC (9505BIK_PANCREAS ACH-001999 PR300): 0.85
KG-FP-003-AUC (2313287_STOMACH ACH-000948 PR500): 0.99
KG-FP-003-AUC (A3KAW_HAEMATOPOIETIC_AND_LYMPHOID_TISSUE ACH-000697 PR300): 1.00
KG-FP-003-AUC (A101D_SKIN ACH-000008 PR500): 0.99
KG-FP-003-AUC (A172_CENTRAL_NERVOUS_SYSTEM ACH-000558 PR500): 0.43
KG-FP-003-AUC (A253_SALIVARY_GLAND ACH-000740 PR300): 0.61
KG-FP-003-AUC (A375_SKIN ACH-000219 PR500): 0.93
KG-FP-003-AUC (A388_SKIN ACH-001442 PR300): 1.00
KG-FP-003-AUC (A427_LUNG ACH-000757 PR300): 0.71
KG-FP-003-AUC (A498_KIDNEY ACH-000555 PR300): 1.00
KG-FP-003-AUC (A549_LUNG ACH-000681 PR500): 0.70
KG-FP-003-AUC (A673_BONE ACH-000052 PR300): 0.99
KG-FP-003-AUC (A704_KIDNEY ACH-000429 PR500): 0.99
KG-FP-003-AUC (A1207_CENTRAL_NERVOUS_SYSTEM ACH-000283 PR300): 0.43
KG-FP-003-AUC (A2058_SKIN ACH-000788 PR500): 0.93
KG-FP-003-AUC (A2780_OVARY ACH-000657 PR500): 0.76
KG-FP-003-AUC (ABC1_LUNG ACH-000528 PR500): 0.81
KG-FP-003-AUC (ACCMESO1_PLEURA ACH-000086 PR500): 0.82
KG-FP-003-AUC (ACHN_KIDNEY ACH-000046 PR500): 0.78
KG-FP-003-AUC (AGS_STOMACH ACH-000880 PR500): 0.56
KG-FP-003-AUC (ALLSIL_HAEMATOPOIETIC_AND_LYMPHOID_TISSUE ACH-000105 PR300): 0.90
KG-FP-003-AUC (AM38_CENTRAL_NERVOUS_SYSTEM ACH-000269 PR300): 0.59
KG-FP-003-AUC (AMO1_HAEMATOPOIETIC_AND_LYMPHOID_TISSUE ACH-000838 PR300): 0.88
KG-FP-003-AUC (AN3CA_ENDOMETRIUM ACH-000940 PR500): 0.99
KG-FP-003-AUC (ANGMCSS_CENTRAL_NERVOUS_SYSTEM ACH-001329 PR300): 0.98
KG-FP-003-AUC (ASPC1_PANCREAS ACH-000222 PR500): 0.76
KG-FP-003-AUC (AU565_BREAST ACH-000248 PR300): 0.95
KG-FP-003-AUC (BC3C_URINARY_TRACT ACH-000593 PR500): 1.00
KG-FP-003-AUC (BCPAP_THYROID ACH-000456 PR500): 0.77
KG-FP-003-AUC (BECKER_CENTRAL_NERVOUS_SYSTEM ACH-001016 PR500): 0.94
KG-FP-003-AUC (BFTC905_URINARY_TRACT ACH-000802 PR500): 0.48
KG-FP-003-AUC (BFTC909_KIDNEY ACH-000792 PR500): 0.91
KG-FP-003-AUC (BHT101_THYROID ACH-000191 PR500): 0.76
KG-FP-003-AUC (BHY_UPPER_AERODIGESTIVE_TRACT ACH-000548 PR300): 0.70
KG-FP-003-AUC (BICR6_UPPER_AERODIGESTIVE_TRACT ACH-000415 PR500): 0.81
KG-FP-003-AUC (BICR16_UPPER_AERODIGESTIVE_TRACT ACH-000503 PR500): 0.74
KG-FP-003-AUC (BICR18_UPPER_AERODIGESTIVE_TRACT ACH-000992 PR300): 0.73
KG-FP-003-AUC (BICR22_UPPER_AERODIGESTIVE_TRACT ACH-000794 PR300): 0.93
KG-FP-003-AUC (BICR31_UPPER_AERODIGESTIVE_TRACT ACH-000228 PR500): 0.88
KG-FP-003-AUC (BICR56_UPPER_AERODIGESTIVE_TRACT ACH-000771 PR500): 0.78
KG-FP-003-AUC (BICR78_UPPER_AERODIGESTIVE_TRACT ACH-001332 PR300): 0.60
KG-FP-003-AUC (BL2_HAEMATOPOIETIC_AND_LYMPHOID_TISSUE ACH-001449 PR300): 0.71
KG-FP-003-AUC (BLUE1_HAEMATOPOIETIC_AND_LYMPHOID_TISSUE ACH-001450 PR300): 0.89
KG-FP-003-AUC (BOKU_CERVIX ACH-001451 PR300): 0.95
KG-FP-003-AUC (BT12_SOFT_TISSUE ACH-000160 PR300): 0.69
KG-FP-003-AUC (BT16_SOFT_TISSUE ACH-001020 PR300): 0.99
KG-FP-003-AUC (BT474_BREAST ACH-000927 PR500): 1.00
KG-FP-003-AUC (BT549_BREAST ACH-000288 PR500): 0.64
KG-FP-003-AUC (BV173_HAEMATOPOIETIC_AND_LYMPHOID_TISSUE ACH-000432 PR300): 0.80
KG-FP-003-AUC (C4I_CERVIX ACH-001334 PR300): 0.97
KG-FP-003-AUC (C32_SKIN ACH-000580 PR300): 0.73
KG-FP-003-AUC (C33A_CERVIX ACH-001333 PR300): 0.94
KG-FP-003-AUC (C75_LARGE_INTESTINE ACH-001458 PR300): 1.00
KG-FP-003-AUC (C80_LARGE_INTESTINE ACH-001459 PR300): 1.00
KG-FP-003-AUC (C8166_HAEMATOPOIETIC_AND_LYMPHOID_TISSUE ACH-000206 PR300): 0.84
KG-FP-003-AUC (CADOES1_BONE ACH-000210 PR300): 1.00
KG-FP-003-AUC (CADOES1_BONE ACH-000210 PR500): 1.00
KG-FP-003-AUC (CAKI1_KIDNEY ACH-000433 PR500): 0.54
KG-FP-003-AUC (CAL12T_LUNG ACH-000826 PR500): 0.55
KG-FP-003-AUC (CAL27_UPPER_AERODIGESTIVE_TRACT ACH-000832 PR500): 0.89
KG-FP-003-AUC (CAL29_URINARY_TRACT ACH-000142 PR500): 0.76
KG-FP-003-AUC (CAL33_UPPER_AERODIGESTIVE_TRACT ACH-000518 PR300): 0.88
KG-FP-003-AUC (CAL51_BREAST ACH-000856 PR500): 0.53
KG-FP-003-AUC (CAL54_KIDNEY ACH-000457 PR500): 0.91
KG-FP-003-AUC (CAL62_THYROID ACH-000174 PR500): 0.51
KG-FP-003-AUC (CAL72_BONE ACH-001715 PR300): 1.00
KG-FP-003-AUC (CAL120_BREAST ACH-000212 PR500): 0.63
KG-FP-003-AUC (CAL148_BREAST ACH-000902 PR300): 0.88
KG-FP-003-AUC (CALU1_LUNG ACH-000511 PR500): 0.47
KG-FP-003-AUC (CALU6_LUNG ACH-000264 PR500): 0.99
KG-FP-003-AUC (CAMA1_BREAST ACH-000783 PR500): 0.99
KG-FP-003-AUC (CAOV3_OVARY ACH-000713 PR500): 0.53
KG-FP-003-AUC (CAPAN2_PANCREAS ACH-000107 PR500): 0.65
KG-FP-003-AUC (CAS1_CENTRAL_NERVOUS_SYSTEM ACH-000464 PR300): 0.85
KG-FP-003-AUC (CASKI_CERVIX ACH-001336 PR300): 0.79
KG-FP-003-AUC (GIMEN_AUTONOMIC_GANGLIA ACH-001344 PR300): 0.77
KG-FP-003-AUC (GOS3_CENTRAL_NERVOUS_SYSTEM ACH-000027 PR500): 0.65
KG-FP-003-AUC (GP2D_LARGE_INTESTINE ACH-000982 PR500): 0.98
KG-FP-003-AUC (GP5D_LARGE_INTESTINE ACH-001345 PR300): 1.00
KG-FP-003-AUC (GRANTA519_HAEMATOPOIETIC_AND_LYMPHOID_TISSUE ACH-000073 PR300): 0.81
KG-FP-003-AUC (GSS_STOMACH ACH-000746 PR300): 0.88
KG-FP-003-AUC (GSU_STOMACH ACH-000485 PR300): 0.90
KG-FP-003-AUC (H4_CENTRAL_NERVOUS_SYSTEM ACH-000389 PR500): 1.00
KG-FP-003-AUC (H103_UPPER_AERODIGESTIVE_TRACT ACH-001346 PR300): 0.98
